Results are given in words; binding and its absence hold for the method and conditions named. Some entries that bind do so weakly or less than the wild type. Where a sequence is shown, tags or fusion partners need not be part of it.
How the values were obtained:
purified IKKγ [1] = target: T1, purified IKKγ (human, UniProt Q9Y6K9 1-419, limits assumed); experiment: GST pull-down (restated in Example 5)
T1 construct: also called NEMO

Chains of the proteins cited; added tags and fusions are not shown. Lines headed by an entry give the natural chain unless they say otherwise; changes in a name come on top.
UniProt Q9Y6K9: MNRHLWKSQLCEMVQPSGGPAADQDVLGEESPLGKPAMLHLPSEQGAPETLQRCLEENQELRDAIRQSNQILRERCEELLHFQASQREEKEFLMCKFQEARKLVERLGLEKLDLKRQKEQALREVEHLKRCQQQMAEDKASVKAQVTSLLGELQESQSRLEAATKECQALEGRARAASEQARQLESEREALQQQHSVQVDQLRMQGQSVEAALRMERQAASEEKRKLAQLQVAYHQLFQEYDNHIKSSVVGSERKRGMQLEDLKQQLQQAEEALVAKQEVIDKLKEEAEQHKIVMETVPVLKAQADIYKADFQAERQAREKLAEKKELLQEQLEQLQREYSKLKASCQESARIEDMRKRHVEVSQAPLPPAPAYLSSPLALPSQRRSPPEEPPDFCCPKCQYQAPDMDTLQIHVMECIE

purified IKKγ [2] = target: T1, purified IKKγ; experiment: GST pull-down: GST-MUC1-CD fragments on glutathione beads with purified IKKγ, anti-IKKγ immunoblot (FIG. 5C)

binding (purified IKKγ [1]): binds
binding (purified IKKγ [2]): binds
Binder: YEKVSAGNGGSSLSYTNPAVAATSANL (peptide, not shown: a dimerising Fc or GST) [GST-MUC1-CD(46-72)]

From patent US20080241125A1 (Dana-Farber, published 2008)
